# Assay results as given in paper PMC8325102.
# By UniProt entry, the sequences of proteins in these tests, tags left out.
# UniProt P68400: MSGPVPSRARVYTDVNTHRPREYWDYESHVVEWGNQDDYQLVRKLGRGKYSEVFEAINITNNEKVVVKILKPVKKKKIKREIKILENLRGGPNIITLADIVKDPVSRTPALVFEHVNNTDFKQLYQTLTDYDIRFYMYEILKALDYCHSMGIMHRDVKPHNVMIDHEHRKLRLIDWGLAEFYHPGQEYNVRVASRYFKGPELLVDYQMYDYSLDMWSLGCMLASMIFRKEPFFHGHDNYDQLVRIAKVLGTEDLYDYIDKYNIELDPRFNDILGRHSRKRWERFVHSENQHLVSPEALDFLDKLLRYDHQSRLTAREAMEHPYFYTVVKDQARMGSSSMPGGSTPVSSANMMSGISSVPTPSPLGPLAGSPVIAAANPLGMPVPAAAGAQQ
# UniProt Q99459: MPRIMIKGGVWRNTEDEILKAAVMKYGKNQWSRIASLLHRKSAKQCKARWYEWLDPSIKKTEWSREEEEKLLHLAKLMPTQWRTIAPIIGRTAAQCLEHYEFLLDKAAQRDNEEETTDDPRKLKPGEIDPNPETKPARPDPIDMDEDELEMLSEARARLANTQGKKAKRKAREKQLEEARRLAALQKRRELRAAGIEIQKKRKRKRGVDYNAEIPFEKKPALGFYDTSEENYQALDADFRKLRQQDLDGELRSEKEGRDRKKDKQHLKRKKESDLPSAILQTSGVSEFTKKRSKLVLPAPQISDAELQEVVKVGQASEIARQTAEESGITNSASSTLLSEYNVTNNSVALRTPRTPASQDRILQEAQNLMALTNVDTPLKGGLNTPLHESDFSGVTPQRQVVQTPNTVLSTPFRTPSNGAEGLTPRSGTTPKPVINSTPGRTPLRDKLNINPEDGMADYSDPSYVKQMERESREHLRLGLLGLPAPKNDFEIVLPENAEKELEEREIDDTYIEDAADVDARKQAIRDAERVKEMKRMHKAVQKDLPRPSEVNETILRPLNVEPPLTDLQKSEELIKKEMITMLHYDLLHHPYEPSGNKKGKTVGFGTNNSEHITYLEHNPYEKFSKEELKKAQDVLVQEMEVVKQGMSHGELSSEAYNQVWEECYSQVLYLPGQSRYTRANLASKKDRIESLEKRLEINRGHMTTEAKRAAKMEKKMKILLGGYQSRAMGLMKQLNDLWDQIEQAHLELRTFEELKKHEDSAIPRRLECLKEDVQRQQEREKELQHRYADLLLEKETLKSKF
# No constants are given. Whether binding was seen depends on the method and setting. In cells and extracts the contact can be indirect. A yes stands for co-enrichment or nearness to the bait. Other partners may have been found.
# Target: BirA*-fused casein kinase 2 (CK2A1) (UniProt P68400)
# Assay: proximity labelling; BioID: BirA*-kinase transfected into HEK293T for 24 h, then 50 uM biotin for 24 h; RIPA lysis, streptavidin magnetic beads 3 h at 4 °C, on-bead digestion, nanoLC/MS/MS, label-free quantification against non-transfected cells (No BirA*); triplicate
row,binding,Molecule
1,binds,CDC5L (from UniProt Q99459 1-802)
2,binds,"TCOF1 (protein, UniProt Q13428 1-1488) MAEARKRRELLPLIYHHLLRAGYVRAAREVKEQSGQKCFLAQPVTLLDIYTHWQQTSELGRKRKAEEDAALQAKKTRVSDPISTSESSEEEEEAEAETAKATPRLASTNSSVLGADLPSSMKEKAKAETEKAGKTGNSMPHPATGKTVANLLSGKSPRKSAEPSANTTLVSETEEEGSVPAFGAAAKPGMVSAGQADSSSEDTSSSSDETDVEGKPSVKPAQVKASSVSTKESPARKAAPAPGKVGDVTPQVKGGALPPAKRAKKPEEESESSEEGSESEEEAPAGTRSQVKASEKILQVRAASAPAKGTPGKGATPAPPGKAGAVASQTKAGKPEEDSESSSEESSDSEEETPAAKALLQAKASGKTSQVGAASAPAKESPRKGAAPAPPGKTGPAVAKAQAGKREEDSQSSSEESDSEEEAPAQAKPSGKAPQVRAASAPAKESPRKGAAPAPPRKTGPAAAQVQVGKQEEDSRSSSEESDSDREALAAMNAAQVKPLGKSPQVKPASTMGMGPLGKGAGPVPPGKVGPATPSAQVGKWEEDSESSSEESSDSSDGEVPTAVAPAQEKSLGNILQAKPTSSPAKGPPQKAGPVAVQVKAEKPMDNSESSEESSDSADSEEAPAAMTAAQAKPALKIPQTKACPKKTNTTASAKVAPVRVGTQAPRKAGTATSPAGSSPAVAGGTQRPAEDSSSSEESDSEEEKTGLAVTVGQAKSVGKGLQVKAASVPVKGSLGQGTAPVLPGKTGPTVTQVKAEKQEDSESSEEESDSEEAAASPAQVKTSVKKTQAKANPAAARAPSAKGTISAPGKVVTAAAQAKQRSPSKVKPPVRNPQNSTVLARGPASVPSVGKAVATAAQAQTGPEEDSGSSEEESDSEEEAETLAQVKPSGKTHQIRAALAPAKESPRKGAAPTPPGKTGPSAAQAGKQDDSGSSSEESDSDGEAPAAVTSAQVIKPPLIFVDPNRSPAGPAATPAQAQAASTPRKARASESTARSSSSESEDEDVIPATQCLTPGIRTNVVTMPTAHPRIAPKASMAGASSSKESSRISDGKKQEGPATQVSKKNPASLPLTQAALKVLAQKASEAQPPVARTQPSSGVDSAVGTLPATSPQSTSVQAKGTNKLRKPKLPEVQQATKAPESSDDSEDSSDSSSGSEEDGEGPQGAKSAHTLGPTPSRTETLVEETAAESSEDDVVAPSQSLLSGYMTPGLTPANSQASKATPKLDSSPSVSSTLAAKDDPDGKQEAKPQQAAGMLSPKTGGKEAASGTTPQKSRKPKKGAGNPQASTLALQSNITQCLLGQPWPLNEAQVQASVVKVLTELLEQERKKVVDTTKESSRKGWESRKRKLSGDQPAARTPRSKKKKKLGAGEGGEASVSPEKTSTTSKGKAKRDKASGDVKEKKGKGSLGSQGAKDEPEEELQKGMGTVEGGDQSNPKSKKEKKKSDKRKKDKEKKEKKKKAKKASTKDSESPSQKKKKKKKKTAEQTV"
3,binds,"THRAP3 (protein, UniProt Q9Y2W1 1-955) MSKTNKSKSGSRSSRSRSASRSRSRSFSKSRSRSRSLSRSRKRRLSSRSRSRSYSPAHNRERNHPRVYQNRDFRGHNRGYRRPYYFRGRNRGFYPWGQYNRGGYGNYRSNWQNYRQAYSPRRGRSRSRSPKRRSPSPRSRSHSRNSDKSSSDRSRRSSSSRSSSNHSRVESSKRKSAKEKKSSSKDSRPSQAAGDNQGDEAKEQTFSGGTSQDTKASESSKPWPDATYGTGSASRASAVSELSPRERSPALKSPLQSVVVRRRSPRPSPVPKPSPPLSSTSQMGSTLPSGAGYQSGTHQGQFDHGSGSLSPSKKSPVGKSPPSTGSTYGSSQKEESAASGGAAYTKRYLEEQKTENGKDKEQKQTNTDKEKIKEKGSFSDTGLGDGKMKSDSFAPKTDSEKPFRGSQSPKRYKLRDDFEKKMADFHKEEMDDQDKDKAKGRKESEFDDEPKFMSKVIGANKNQEEEKSGKWEGLVYAPPGKEKQRKTEELEEESFPERSKKEDRGKRSEGGHRGFVPEKNFRVTAYKAVQEKSSSPPPRKTSESRDKLGAKGDFPTGKSSFSITREAQVNVRMDSFDEDLARPSGLLAQERKLCRDLVHSNKKEQEFRSIFQHIQSAQSQRSPSELFAQHIVTIVHHVKEHHFGSSGMTLHERFTKYLKRGTEQEAAKNKKSPEIHRRIDISPSTFRKHGLAHDEMKSPREPGYKAEGKYKDDPVDLRLDIERRKKHKERDLKRGKSRESVDSRDSSHSRERSAEKTEKTHKGSKKQKKHRRARDRSRSSSSSSQSSHSYKAEEYTEETEEREESTTGFDKSRLGTKDFVGPSERGGGRARGTFQFRARGRGWGRGNYSGNNNNNSNNDFQKRNREEEWDPEYTPKSKKYYLHDDREGEGSDKWVSRGRGRGAFPRGRGRFMFRKSSTSPKWAHDKFSGEEGEIEDDESGTENREEKDNIQPTTE"
